Measurements: patent publication US20240390508A1, “HUMAN TRANSFERRIN RECEPTOR BINDING PEPTIDE-DRUG CONJUGATE” (priority 2021, published 2024)
At least one structure is not confirmed: it was looked up by name or label, or the drawing left a doubt.

Protein sequences, listed by entry. Tags and fused reporters are not part of them.
UniProt P02786, whole entry: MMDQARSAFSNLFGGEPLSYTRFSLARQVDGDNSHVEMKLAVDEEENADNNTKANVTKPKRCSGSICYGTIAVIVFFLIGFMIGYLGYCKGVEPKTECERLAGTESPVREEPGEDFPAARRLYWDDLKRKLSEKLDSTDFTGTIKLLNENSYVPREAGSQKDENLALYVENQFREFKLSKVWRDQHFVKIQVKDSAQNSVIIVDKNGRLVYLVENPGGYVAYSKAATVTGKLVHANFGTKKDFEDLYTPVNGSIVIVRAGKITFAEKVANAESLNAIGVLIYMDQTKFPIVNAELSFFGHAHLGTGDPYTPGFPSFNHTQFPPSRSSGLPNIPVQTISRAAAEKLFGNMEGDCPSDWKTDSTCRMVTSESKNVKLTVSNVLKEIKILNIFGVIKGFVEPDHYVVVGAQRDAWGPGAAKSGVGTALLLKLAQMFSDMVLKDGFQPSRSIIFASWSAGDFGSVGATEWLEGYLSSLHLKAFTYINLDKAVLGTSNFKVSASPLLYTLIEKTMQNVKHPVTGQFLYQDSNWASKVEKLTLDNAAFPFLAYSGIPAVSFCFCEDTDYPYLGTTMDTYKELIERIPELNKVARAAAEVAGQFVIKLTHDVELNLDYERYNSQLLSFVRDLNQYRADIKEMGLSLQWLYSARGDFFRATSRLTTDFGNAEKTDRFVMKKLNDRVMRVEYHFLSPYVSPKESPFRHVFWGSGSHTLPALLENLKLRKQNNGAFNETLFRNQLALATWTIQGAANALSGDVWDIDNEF

Molecular target: transferrin receptor (hTfR) (Homo sapiens, UniProt P02786)
Experiment: Intermolecular interaction evaluation test between transferrin receptor (hTfR) and peptide-nucleic acid conjugate using surface plasmon resonance (SPR)
Type: binding
Conditions: KD value to hTfR by SPR, Biacore T200, Single Cycle Kinetics, hTfR immobilized on NTA sensor chip

| Structure (SMILES) | Kd |
| --- | --- |
| CC[C@H](C)[C@@H]1NC(=O)[C@H](Cc2ccc(O)cc2)NC(=O)[C@H](Cc2ccc(O)cc2)NC(=O)[C@H](CC(N)=O)NC(=O)[C@H](Cc2c[nH]c3ccccc23)NC(=O)[C@H](C(C)C)NC(=O)[C@H](Cc2ccccc2)N(C)C(=O)[C@H](C(C)C)NC(=O)[C@H](C)NC(=O)CSC[C@@H](C(=O)NCC(=O)N[C@@H](CCCCn2nnc3c2CCC2C(CC3)C2COC(=O)NCCCCCCOP(=O)(O)OC[C@H]2O[C@@H](n3cnc4c(=O)[nH]c(N)nc43)[C@H](OC)[C@@H]2OP(=O)(S)OC[C@H]2O[C@@H](n3cnc4c(N)ncnc43)[C@H](OC)[C@@H]2OP(=O)(S)OC[C@H]2O[C@@H](n3cnc4c(N)ncnc43)[C@H](OC)[C@@H]2OP(=O)(S)OC[C@H]2O[C@@H](n3ccc(N)nc3=O)[C@H](OC)[C@@H]2OP(=O)(O)OC[C@H]2O[C@@H](n3cnc4c(N)ncnc43)C[C@@H]2OP(=O)(O)OC[C@H]2O[C@@H](n3ccc(N)nc3=O)[C@H](OC)[C@@H]2OP(=O)(O)OC[C@H]2O[C@@H](n3ccc(N)nc3=O)[C@H](OC)[C@@H]2OP(=O)(O)OC[C@H]2O[C@@H](n3ccc(=O)[nH]c3=O)[C@H](OC)[C@@H]2OP(=O)(O)OC[C@H]2O[C@@H](n3ccc(=O)[nH]c3=O)[C@H](OC)[C@@H]2OP(=O)(O)OC[C@H]2O[C@@H](n3ccc(N)nc3=O)[C@H](OC)[C@@H]2OP(=O)(O)OC[C@H]2O[C@@H](n3cnc4c(N)ncnc43)C[C@@H]2OP(=O)(O)OC[C@H]2O[C@@H](n3cnc4c(=O)[nH]c(N)nc43)C[C@@H]2OP(=O)(O)OC[C@H]2O[C@@H](n3cnc4c(N)ncnc43)C[C@@H]2OP(=O)(O)OC[C@H]2O[C@@H](n3cnc4c(N)ncnc43)C[C@@H]2OP(=O)(O)OC[C@H]2O[C@@H](n3ccc(N)nc3=O)[C@H](OC)[C@@H]2OP(=O)(O)OC[C@H]2O[C@@H](n3ccc(N)nc3=O)[C@H](OC)[C@@H]2OP(=O)(O)OC[C@H]2O[C@@H](n3cnc4c(=O)[nH]c(N)nc43)C[C@@H]2OP(=O)(O)OC[C@H]2O[C@@H](n3cnc4c(=O)[nH]c(N)nc43)C[C@@H]2OP(=O)(S)OC[C@H]2O[C@@H](n3cnc4c(N)ncnc43)[C@H](OC)[C@@H]2OP(=O)(S)OC[C@H]2O[C@@H](n3cnc4c(=O)[nH]c(N)nc43)[C@H](OC)[C@@H]2OP(=O)(S)OC[C@H]2O[C@@H](n3cnc4c(=O)[nH]c(N)nc43)[C@H](OC)[C@@H]2O)C(N)=O)NC(=O)[C@H](Cc2ccc(O)cc2)N(C)C(=O)[C@H](Cc2ccc(O)cc2)NC(=O)[C@H](CCCNC(=N)N)NC(=O)[C@H](CCCNC(=N)N)NC(=O)[C@H]([C@@H](C)CC)NC1=O (stereo partly shown) [Example 13] | < 100 nM |
| CC[C@H](C)[C@@H]1NC(=O)[C@H](Cc2ccc(O)cc2)NC(=O)[C@H](Cc2ccc(O)cc2)NC(=O)[C@H](CC(N)=O)NC(=O)[C@H](Cc2c[nH]c3ccccc23)NC(=O)[C@H](C(C)C)NC(=O)[C@H](Cc2ccccc2)N(C)C(=O)[C@H](C(C)C)NC(=O)[C@H](C)NC(=O)CSC[C@@H](C(=O)NCC(=O)N[C@@H](CCCCn2nnc3c2CCC2C(CC3)C2COC(=O)NCCCCCCOP(=O)(O)OC[C@H]2O[C@@H](n3cnc4c(=O)[nH]c(N)nc43)[C@H](OC)[C@@H]2OP(=O)(S)OC[C@H]2O[C@@H](n3cnc4c(N)ncnc43)[C@H](OC)[C@@H]2OP(=O)(S)OC[C@H]2O[C@@H](n3cnc4c(N)ncnc43)[C@H](OC)[C@@H]2OP(=O)(S)OC[C@H]2O[C@@H](n3ccc(N)nc3=O)[C@H](O)[C@@H]2OP(=O)(O)OC[C@H]2O[C@@H](n3cnc4c(N)ncnc43)[C@H](O)[C@@H]2OP(=O)(O)OC[C@H]2O[C@@H](n3ccc(N)nc3=O)[C@H](O)[C@@H]2OP(=O)(O)OC[C@H]2O[C@@H](n3ccc(N)nc3=O)[C@H](O)[C@@H]2OP(=O)(O)OC[C@H]2O[C@@H](n3ccc(=O)[nH]c3=O)[C@H](O)[C@@H]2OP(=O)(O)OC[C@H]2O[C@@H](n3ccc(=O)[nH]c3=O)[C@H](O)[C@@H]2OP(=O)(O)OC[C@H]2O[C@@H](n3ccc(N)nc3=O)[C@H](O)[C@@H]2OP(=O)(O)OC[C@H]2O[C@@H](n3cnc4c(N)ncnc43)[C@H](O)[C@@H]2OP(=O)(O)OC[C@H]2O[C@@H](n3cnc4c(=O)[nH]c(N)nc43)[C@H](O)[C@@H]2OP(=O)(O)OC[C@H]2O[C@@H](n3cnc4c(N)ncnc43)[C@H](O)[C@@H]2OP(=O)(S)OC[C@H]2O[C@@H](n3cnc4c(N)ncnc43)[C@H](OC)[C@@H]2OP(=O)(S)OC[C@H]2O[C@@H](n3ccc(N)nc3=O)[C@H](OC)[C@@H]2OP(=O)(S)OC[C@H]2O[C@@H](n3ccc(N)nc3=O)[C@H](OC)[C@@H]2O)C(N)=O)NC(=O)[C@H](Cc2ccc(O)cc2)N(C)C(=O)[C@H](Cc2ccc(O)cc2)NC(=O)[C@H](CCCNC(=N)N)NC(=O)[C@H](CCCNC(=N)N)NC(=O)[C@H]([C@@H](C)CC)NC1=O (stereo partly shown) [Example 14] | < 100 nM |
| CC[C@H](C)[C@@H]1NC(=O)[C@H](Cc2ccc(O)cc2)NC(=O)[C@H](Cc2ccc(O)cc2)NC(=O)[C@H](CC(N)=O)NC(=O)[C@H](Cc2c[nH]c3ccccc23)NC(=O)[C@H](C(C)C)NC(=O)[C@H](Cc2ccccc2)N(C)C(=O)[C@H](C(C)C)NC(=O)[C@H](C)NC(=O)CSC[C@@H](C(=O)NCC(=O)N[C@@H](CCCCn2nnc3c2CCC2C(CC3)C2COC(=O)NCCCCCCOP(=O)(O)OC[C@@]23CN(C)O[C@@H]([C@H](n4cnc5c(=O)[nH]c(N)nc54)O2)[C@@H]3OP(=O)(S)OC[C@@]23CN(C)O[C@@H]([C@H](n4cnc5c(N)ncnc54)O2)[C@@H]3OP(=O)(S)OC[C@@]23CN(C)O[C@@H]([C@H](n4cnc5c(N)ncnc54)O2)[C@@H]3OP(=O)(S)OC[C@H]2O[C@@H](n3ccc(N)nc3=O)[C@H](O)[C@@H]2OP(=O)(O)OC[C@H]2O[C@@H](n3cnc4c(N)ncnc43)[C@H](O)[C@@H]2OP(=O)(O)OC[C@H]2O[C@@H](n3ccc(N)nc3=O)[C@H](O)[C@@H]2OP(=O)(O)OC[C@H]2O[C@@H](n3ccc(N)nc3=O)[C@H](O)[C@@H]2OP(=O)(O)OC[C@H]2O[C@@H](n3ccc(=O)[nH]c3=O)[C@H](O)[C@@H]2OP(=O)(O)OC[C@H]2O[C@@H](n3ccc(=O)[nH]c3=O)[C@H](O)[C@@H]2OP(=O)(O)OC[C@H]2O[C@@H](n3ccc(N)nc3=O)[C@H](O)[C@@H]2OP(=O)(O)OC[C@H]2O[C@@H](n3cnc4c(N)ncnc43)[C@H](O)[C@@H]2OP(=O)(O)OC[C@H]2O[C@@H](n3cnc4c(=O)[nH]c(N)nc43)[C@H](O)[C@@H]2OP(=O)(O)OC[C@H]2O[C@@H](n3cnc4c(N)ncnc43)[C@H](O)[C@@H]2OP(=O)(O)OC[C@H]2O[C@@H](n3cnc4c(N)ncnc43)[C@H](O)[C@@H]2OP(=O)(O)OC[C@H]2O[C@@H](n3ccc(N)nc3=O)[C@H](O)[C@@H]2OP(=O)(O)OC[C@H]2O[C@@H](n3ccc(N)nc3=O)[C@H](O)[C@@H]2OP(=O)(O)OC[C@H]2O[C@@H](n3cnc4c(=O)[nH]c(N)nc43)[C@H](O)[C@@H]2OP(=O)(O)OC[C@H]2O[C@@H](n3cnc4c(=O)[nH]c(N)nc43)[C@H](O)[C@@H]2OP(=O)(S)OC[C@@]23CN(C)O[C@@H]([C@H](n4cnc5c(N)ncnc54)O2)[C@@H]3OP(=O)(S)OC[C@@]23CN(C)O[C@@H]([C@H](n4cnc5c(=O)[nH]c(N)nc54)O2)[C@@H]3OP(=O)(S)OC[C@@]23CN(C)O[C@@H]([C@H](n4cnc5c(=O)[nH]c(N)nc54)O2)[C@@H]3O)C(N)=O)NC(=O)[C@H](Cc2ccc(O)cc2)N(C)C(=O)[C@H](Cc2ccc(O)cc2)NC(=O)[C@H](CCCNC(=N)N)NC(=O)[C@H](CCCNC(=N)N)NC(=O)[C@H]([C@@H](C)CC)NC1=O (stereo partly shown) [Example 15] | < 100 nM |
| CC[C@H](C)[C@@H]1NC(=O)[C@H](Cc2ccc(O)cc2)NC(=O)[C@H](Cc2ccc(O)cc2)NC(=O)[C@H](CC(N)=O)NC(=O)[C@H](Cc2c[nH]c3ccccc23)NC(=O)[C@H](C(C)C)NC(=O)[C@H](Cc2ccccc2)N(C)C(=O)[C@H](C(C)C)NC(=O)[C@H](C)NC(=O)CSC[C@@H](C(=O)NCC(=O)N[C@@H](CCCCn2nnc3c2CCC2C(CC3)C2COC(=O)NCCCCCCOP(=O)(O)OC[C@@]23CN(C)O[C@@H]([C@H](n4cnc5c(=O)[nH]c(N)nc54)O2)[C@@H]3OP(=O)(S)OC[C@@]23CN(C)O[C@@H]([C@H](n4cnc5c(N)ncnc54)O2)[C@@H]3OP(=O)(S)OC[C@@]23CN(C)O[C@@H]([C@H](n4cnc5c(N)ncnc54)O2)[C@@H]3OP(=O)(S)OC[C@H]2O[C@@H](n3ccc(N)nc3=O)C[C@@H]2OP(=O)(O)OC[C@H]2O[C@@H](n3cnc4c(N)ncnc43)C[C@@H]2OP(=O)(O)OC[C@H]2O[C@@H](n3ccc(N)nc3=O)C[C@@H]2OP(=O)(O)OC[C@H]2O[C@@H](n3ccc(N)nc3=O)C[C@@H]2OP(=O)(O)OC[C@H]2O[C@@H](n3cc(C)c(=O)[nH]c3=O)C[C@@H]2OP(=O)(O)OC[C@H]2O[C@@H](n3cc(C)c(=O)[nH]c3=O)C[C@@H]2OP(=O)(O)OC[C@H]2O[C@@H](n3ccc(N)nc3=O)C[C@@H]2OP(=O)(O)OC[C@H]2O[C@@H](n3cnc4c(N)ncnc43)C[C@@H]2OP(=O)(O)OC[C@H]2O[C@@H](n3cnc4c(=O)[nH]c(N)nc43)C[C@@H]2OP(=O)(O)OC[C@H]2O[C@@H](n3cnc4c(N)ncnc43)C[C@@H]2OP(=O)(O)OC[C@H]2O[C@@H](n3cnc4c(N)ncnc43)C[C@@H]2OP(=O)(O)OC[C@H]2O[C@@H](n3ccc(N)nc3=O)C[C@@H]2OP(=O)(O)OC[C@H]2O[C@@H](n3cc(C)c(N)nc3=O)C[C@@H]2OP(=O)(O)OC[C@H]2O[C@@H](n3cnc4c(=O)[nH]c(N)nc43)C[C@@H]2OP(=O)(O)OC[C@H]2O[C@@H](n3cnc4c(=O)[nH]c(N)nc43)C[C@@H]2OP(=O)(S)OC[C@@]23CN(C)O[C@@H]([C@H](n4cnc5c(N)ncnc54)O2)[C@@H]3OP(=O)(S)OC[C@@]23CN(C)O[C@@H]([C@H](n4cnc5c(=O)[nH]c(N)nc54)O2)[C@@H]3OP(=O)(S)OC[C@@]23CN(C)O[C@@H]([C@H](n4cnc5c(=O)[nH]c(N)nc54)O2)[C@@H]3O)C(N)=O)NC(=O)[C@H](Cc2ccc(O)cc2)N(C)C(=O)[C@H](Cc2ccc(O)cc2)NC(=O)[C@H](CCCNC(=N)N)NC(=O)[C@H](CCCNC(=N)N)NC(=O)[C@H]([C@@H](C)CC)NC1=O (stereo partly shown) [Example 16] | < 100 nM |
